Whether high values mean tight binding is not given here for every scale. Protein sequences can lack the tags named with them.
target: T1, Caup homeodomain (Drosophila melanogaster) (UniProt P54269); experiment: binding assay; details: PBM; protein translated in vitro; residues 214-303; only the motif is given
T1 sequence (looked up): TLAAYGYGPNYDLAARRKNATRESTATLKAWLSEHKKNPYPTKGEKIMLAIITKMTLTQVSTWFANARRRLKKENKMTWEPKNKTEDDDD

| Sequence | binding signal (minimum E-score of the two 8-mers) |
| --- | --- |
| AAACGCCAT (double strand) [9-mer AAACGCCAT] | -0.015 |
| AATTTTAGA (double strand) [9-mer AATTTTAGA] | 0 |
| ACAGGCAAC (double strand) [9-mer ACAGGCAAC] | -0.03 |
| CACAGACGG (double strand) [9-mer CACAGACGG] | -0.044 |
| CCTACGTTC (double strand) [9-mer CCTACGTTC] | -0.119 |
| CGATGCTTC (double strand) [9-mer CGATGCTTC] | -0.073 |
| CGTCAGCCA (double strand) [9-mer CGTCAGCCA] | -0.088 |
| GACCTGTGA (double strand) [9-mer GACCTGTGA] | -0.058 |
| TCCCCATAA (double strand) [9-mer TCCCCATAA] | -0.104 |

same assay, conditions: PBM; protein translated in vitro; residues 214-303; only the motif is given; counted as no binding

| Sequence | binding signal (minimum E-score of the two 8-mers) |
| --- | --- |
| AGGGGTGGG (double strand) [9-mer AGGGGTGGG] | -0.155 |
| CGGAGCTGC (double strand) [9-mer CGGAGCTGC] | -0.245 |
| GGAAGTGCC (double strand) [9-mer GGAAGTGCC] | -0.177 |
| GGCCCCCCA (double strand) [9-mer GGCCCCCCA] | -0.448 |
| GGCCGAACC (double strand) [9-mer GGCCGAACC] | -0.204 |
| GTGGCACGA (double strand) [9-mer GTGGCACGA] | -0.136 |
